PubChem BioAssay AID602196 – INSERM – 2012
In all, the deposit lists about 23,000 reagents; below is an unselected part. 455 of all reagents (2%) count as active. 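Active includes both protection and sensitisation; some change values fall well beyond the stated -50 to +50 range.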 Not all columns of the deposit are shown. Not given: the amount of reagent.

Aim: 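Genes whose knock-down alters cisplatin killing of lung cancer cells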
System: human A549 lung cancer cells
Reagents: siRNA pair against human genes
Timing: 48 h transfection before cisplatin; time from cisplatin to read-out not stated
Treatment: cisplatin at a dose killing half of control-siRNA cells; exact dose and duration not given
Measured: 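Cisplatin cell death as a shift from the 50% death seen with control siRNA; siRNAs toxic or growth-blocking alone scored 0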
Direction: two-siRNA summed score (-2 to +2): higher = both siRNAs protect from cisplatin killing; -2 means both sensitise
Hit rule: 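Each siRNA scores 0 if harmful alone by LDH or WST-1, otherwise +1 if it reduces and -1 if it increases cisplatin killing; a gene is active when both siRNAs agree (sum +2 or -2)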
Meaning of the calls: active = both siRNAs shift cisplatin killing the same way; inactive = no consistent shift, or siRNA harmful alone

{"Target gene": "ADGRB3 (adhesion G protein-coupled receptor B3)", "two-siRNA summed score (-2 to +2)": 1, "Call": "inactive"}
{"Target gene": "APOBEC2 (apolipoprotein B mRNA editing enzyme catalytic subunit 2)", "two-siRNA summed score (-2 to +2)": 1, "Call": "inactive"}
{"Target gene": "ATP6V1D (ATPase H+ transporting V1 subunit D)", "two-siRNA summed score (-2 to +2)": -1, "Call": "inactive"}
{"Target gene": "PCYT2 (phosphate cytidylyltransferase 2, ethanolamine)", "two-siRNA summed score (-2 to +2)": 0, "Call": "inactive"}
{"Target gene": "DPY19L3 (dpy-19 like C-mannosyltransferase 3)", "two-siRNA summed score (-2 to +2)": 1, "Call": "inactive"}
{"Target gene": "MTMR8 (myotubularin related protein 8)", "two-siRNA summed score (-2 to +2)": 0, "Call": "inactive"}
{"Target gene": "LOC388847", "two-siRNA summed score (-2 to +2)": 1, "Call": "inactive"}
{"Target gene": "HCAR1 (hydroxycarboxylic acid receptor 1)", "two-siRNA summed score (-2 to +2)": 1, "Call": "inactive"}
{"Target gene": "RUSC1-AS1 (RUSC1 antisense RNA 1)", "two-siRNA summed score (-2 to +2)": 1, "Call": "inactive"}
{"Target gene": "LOC441875", "two-siRNA summed score (-2 to +2)": 0, "Call": "inactive"}
{"Target gene": "KIAA0339", "two-siRNA summed score (-2 to +2)": -1, "Call": "inactive"}
{"Target gene": "DLL4 (delta like canonical Notch ligand 4)", "two-siRNA summed score (-2 to +2)": -1, "Call": "inactive"}
{"Target gene": "RNF26 (ring finger protein 26)", "two-siRNA summed score (-2 to +2)": 1, "Call": "inactive"}
{"Target gene": "RPL3 (ribosomal protein L3)", "two-siRNA summed score (-2 to +2)": 0, "Call": "inactive"}
{"Target gene": "NINJ1 (ninjurin 1)", "two-siRNA summed score (-2 to +2)": 0, "Call": "inactive"}
{"Target gene": "LINC01226 (long independently transcribed non-coding RNA 1226)", "two-siRNA summed score (-2 to +2)": 0, "Call": "inactive"}
{"Target gene": "FAM185A (family with sequence similarity 185 member A)", "two-siRNA summed score (-2 to +2)": 0, "Call": "inactive"}
{"Target gene": "LOC400890", "two-siRNA summed score (-2 to +2)": 0, "Call": "inactive"}
{"Target gene": "TBX5 (T-box transcription factor 5)", "two-siRNA summed score (-2 to +2)": 0, "Call": "inactive"}
{"Target gene": "CORO2A (coronin 2A)", "two-siRNA summed score (-2 to +2)": 0, "Call": "inactive"}
{"Target gene": "EYS (EGF-like photoreceptor maintenance factor)", "two-siRNA summed score (-2 to +2)": -1, "Call": "inactive"}
{"Target gene": "ULBP3 (UL16 binding protein 3)", "two-siRNA summed score (-2 to +2)": 0, "Call": "inactive"}
{"Target gene": "LOC441192", "two-siRNA summed score (-2 to +2)": 0, "Call": "inactive"}
{"Target gene": "NUDCD2 (NudC domain containing 2)", "two-siRNA summed score (-2 to +2)": 1, "Call": "inactive"}
{"Target gene": "ERLIN1 (ER lipid raft associated 1)", "two-siRNA summed score (-2 to +2)": -1, "Call": "inactive"}
{"Target gene": "RPL10 (ribosomal protein L10)", "two-siRNA summed score (-2 to +2)": 0, "Call": "inactive"}
{"Target gene": "WNK2 (WNK lysine deficient protein kinase 2)", "two-siRNA summed score (-2 to +2)": 0, "Call": "inactive"}
{"Target gene": "CINP (cyclin dependent kinase 2 interacting protein)", "two-siRNA summed score (-2 to +2)": 0, "Call": "inactive"}
{"Target gene": "LOC402382", "two-siRNA summed score (-2 to +2)": 2, "Call": "active"}
{"Target gene": "MFAP3 (microfibril associated protein 3)", "two-siRNA summed score (-2 to +2)": 1, "Call": "inactive"}
{"Target gene": "CYGB (cytoglobin)", "two-siRNA summed score (-2 to +2)": 1, "Call": "inactive"}

Part of the list above, reformatted.
{"Target gene":"MFAP3 (microfibril associated protein 3)","two-siRNA summed score (-2 to +2)":1,"Call":"inactive"}
{"Target gene":"CYGB (cytoglobin)","two-siRNA summed score (-2 to +2)":1,"Call":"inactive"}
